This assay is described as follows: qHTS Assay for Lipid Storage Modulators in Drosophila S3 Cells.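 As to cell number change: cells counted by Cell Tracker Red CMTPX staining in the red channel.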 To be noted: BODIPY lipid droplet fluorescence, 18-24 h; for cell number change: measured here: cell count max response, cells fed with added oleic acid. The gist of the method: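 Drosophila S3 cells got compounds at several concentrations plus oleic acid (400 uM solution). Laser-scanning cytometry with 488 nm excitation read lipid droplets at 500-530 nm and cells at 575-640 nm. Percent activity was relative to 20 uM Triacsin C.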

[1] abbreviates: measured here: lipid fluorescence (Fed channel) AC50, cells fed with added oleic acid.
The mark [2] stands for this setting: measured here: cell number channel AC50, cells fed with added oleic acid.

The other results are listed elsewhere or left out. Shown are side measurements of this screen, not its main read-out; they come without a call. Most of these compounds were active or inconclusive in the main read-out, so they are no random draw. The note in brackets gives the kind of curve behind each potency; many fits are weak.

For the molecule `CCOC(=O)c1ccc(N2C(=O)C(O)=C(C(C)=O)C2c2ccc([N+](=O)[O-])cc2)cc1` (centres undefined), the cell number change was found to be 0.275%.

For `COCCN(C(=O)CSc1nnc(Nc2ccc(C)cc2)s1)c1c(N)n(CC(C)C)c(=O)[nH]c1=O`, under setting [1], the AC50 (commonly the midpoint of the concentration-response curve, whichever way the signal moves) is 23.1 µM [rising, single point].

Turning to `CCOC(=O)c1ccc(NC(=O)C(C)Sc2nc(O)c(-c3ccccc3)c(=O)[nH]2)cc1` (centres undefined), the cell number change was -33.3%. The AC50 under setting [2] is 29.1 µM [falling, single point]. Further, the AC50 under setting [1] is 29.1 µM [falling, single point].

Consider `COc1ccc(N2CCN(C(=O)c3cn(C4CCCC4)c(=O)c4c3c3ccccc3n4C)CC2)cc1`, for which the cell number change is -1.87%. The AC50 under setting [1] is 1.84 µM [rising, partial curve].

Consider `CN1CCN(CC(=O)Nc2c(C(=O)C3CC3)oc3ccccc23)CC1`, for which the cell number change is -1.96%.

For the molecule `N#CCCn1c(SCC(=O)NCCc2ccc(F)cc2)nc2ccccc21`, the cell number change came to 21%. Besides, the AC50 under setting [2] is 6.51 µM [falling, single point]. For the same molecule, the AC50 under setting [1] is 7.31 µM [rising, partial curve, poor fit].

As for `CCCCn1c(N)c(N(CCOC)C(=O)c2c(-c3ccccc3)noc2C)c(=O)[nH]c1=O`, the cell number change is -26.3%. Also, the concentration at half-maximal activity (AC50) under setting [1] was 0.58 µM [falling, full curve].

For the molecule `O=C(Nc1ccc2ccccc2c1)c1cc(F)c(F)cc1Cl`, the cell number change is 1.57%. In addition, the AC50 under setting [1] was 18.4 µM [falling, single point].

With `Cc1cccc([C@@H]2[C@@H]3C(=O)N(Cc4ccccc4)C(=O)[C@@H]3[C@]3(C)C(=O)N(c4ccc(C(F)(F)F)cc4)C(=O)N23)c1`, the cell number change amounted to 77.2%. Also, under setting [2], the AC50 was 25.9 µM [rising, single point].

For `COC(=O)c1c(C(=O)OC)c(-c2ccc(OC)cc2)n2c1CCC2`, the cell number change was 15.7%. Under setting [1], the AC50 is 4.61 µM [rising, full curve].

For `Cc1ccc2[nH]cc(CCNC(=O)CN3C(=O)c4ccccc4C3=O)c2c1`, the cell number change was 36.4%. Besides, under setting [2], the AC50 was 6.51 µM [rising, partial curve, poor fit]. Moreover, the AC50 under setting [1] is 1.46 µM [rising, partial curve].

As for `COC(=O)[C@@H](NC(=O)c1ccc2c(c1)S(=O)(=O)c1ccccc1C2=O)C(C)C`, the cell number change is -5.46%. Moreover, under setting [1], the AC50 is 29.1 µM [falling, single point].

Regarding `Cc1ccc(S(=O)(=O)n2nnc3ccccc32)c(C)c1C`, the cell number change stood at 22.7%. Moreover, the AC50 under setting [1] is 0.00461 µM [rising, full curve].

Regarding `COc1cccc(Cn2c(-c3nonc3N)nc3ccccc32)c1`, the AC50 was 2.91 µM [rising, partial curve] under setting [2] and 0.461 µM [rising, single point] under setting [1].

Turning to `COc1ccc(N2CC(C(=O)NCCN3C(=O)S/C(=C\c4cccnc4)C3=O)CC2=O)c(OC)c1` (centres undefined), under setting [2], the AC50 was 0.651 µM [rising, full curve].

For the molecule `COC(=O)C1=C(N)c2c(F)cccc2C1(C#N)c1ccccc1` (centres undefined), the cell number change was 78.4%. In addition, under setting [2], the AC50 was 25.9 µM [rising, single point]. Moreover, the AC50 under setting [1] was 1.3 µM [falling, full curve, poor fit].

`CCc1ccccc1NC(=O)C(Cc1cccc(OC)c1OC)c1nn[nH]n1` (centres undefined): the cell number change is 18.6%. In addition, the AC50 under setting [1] is 29.1 µM [falling, partial curve, poor fit].

As for `CC(C)OC(=O)CC1C(=O)NCCN1C(=S)NC(=O)c1ccccc1` (centres undefined), the cell number change was 14.3%.

In the case of `COc1ccc2c(c1)-c1c(ssc1=S)C(C)(C)N2S(=O)(=O)c1ccc(C)cc1`, the cell number change is -84.9%. In addition, the AC50 under setting [2] was 8.2 µM [falling, partial curve]. Moreover, the AC50 under setting [1] is 6.51 µM [falling, full curve].

`Cc1cccc(C(=O)N(CCc2ccccc2)Cc2ccccc2)c1[N+](=O)[O-]`: the cell number change was determined as 3.78%. Moreover, under setting [1], the AC50 was 29.1 µM [falling, single point].

With `COC(=O)N/N=C/c1cn(CCOc2cccc(OC)c2)c2ccccc12`, the cell number change was determined as 28.8%.

Take `COc1ccc(-c2noc(N3CCC(C(=O)N(C)c4ccccc4C)CC3)n2)cc1`: the cell number change was -13.3%.

For the molecule `COc1ccc(CNC(=O)C(c2ccncc2)N(C(=O)Cc2cccs2)c2cccc(C)c2)cc1` (centres undefined), the cell number change is -11.8%. In addition, the AC50 under setting [1] is 11.6 µM [falling, partial curve, poor fit].

For the molecule `CNC(=O)c1ncnnc1N(C)C(=O)NCc1ccccc1`, the cell number change is 8.01%. The half-maximal activity concentration (AC50) under setting [1] was 0.092 µM [falling, full curve].

Regarding `FC(F)(F)c1ccccc1NC(=S)N/N=C1\CC2CC=CC12` (centres undefined), the cell number change stood at 13.4%. For the same molecule, the AC50 under setting [2] is 0.0411 µM [rising, full curve, poor fit]. Moreover, the AC50 under setting [1] was 0.0058 µM [rising, full curve, poor fit].

Turning to `CCOc1cccc2sc(Nc3nc4ccc(NC(C)=O)cc4s3)nc12`, the cell number change was -33.4%. Under setting [2], the AC50 was 1.03 µM [falling, full curve]. Also, the AC50 under setting [1] was 18.4 µM [falling, partial curve].

For `COc1ccc(N2CCN(S(=O)(=O)c3cc4c(cc3C)NC(=O)CO4)CC2)cc1`, the cell number change was -4.03%.

Take `COc1ccc(C(=O)N/N=C/c2cc3ccccc3[nH]c2=S)cc1`: the AC50 under setting [2] is 0.731 µM [rising, partial curve, poor fit] and the AC50 under setting [1] is 29.1 µM [falling, single point].

For `COc1cc(C(O)CO)ccc1O` (centres undefined), the cell number change was -39.2%. Moreover, the AC50 under setting [2] was 1.3 µM [falling, full curve, poor fit]. Moreover, the AC50 under setting [1] is 29.1 µM [falling, single point].

Consider `O=C(C1=C(O)C(=O)N(CC2CCCO2)C1c1ccccc1)c1ccco1` (centres undefined), for which the cell number change worked out at 10.5%. For the same molecule, under setting [1], the AC50 is 3.55 µM [falling, single point].

As for `O=C(NN=C1CCCC1)NC1CCCCC1`, the cell number change turned out to be 126%. In addition, the AC50 under setting [2] is 18.4 µM [rising, single point].

As for `CCN1CCN(CC(=O)c2cc(OC)c(OC)c(OC)c2)CC1`, the cell number change was -12.1%. For the same molecule, under setting [2], the AC50 is 6.51 µM [falling, single point].

As for `Cc1cccc(/C(N)=N/OC(=O)c2cccc3ccccc23)c1`, the cell number change is -10.5%.

In the case of `CCCCNS(=O)(=O)c1ccc(OCC(=O)OC)cc1`, the cell number change was -0.244%. Under setting [1], the concentration at half-maximal activity (AC50) is 6.51 µM [falling, single point].

`Cc1ccc(C)c(S(=O)(=O)NC(CC(C)C)C(=O)O)c1` (centres undefined): under setting [1], the AC50 is 18.4 µM [rising, partial curve].

Regarding `Cc1ccc(C(OC(=O)c2ccco2)C(=O)NCc2cccs2)cc1` (centres undefined), the cell number change stood at 9.16%. Also, under setting [1], the AC50 was 0.326 µM [rising, full curve, poor fit].

With `CCc1ccc(NC(=O)COc2ccc(/C=C(/C#N)c3nc4ccccc4[nH]3)cc2OC)cc1`, the cell number change was -68.8%. Further, under setting [2], the AC50 was 1.46 µM [falling, full curve]. The AC50 under setting [1] is 1.46 µM [falling, full curve].

In the case of `O=C(Nc1nccs1)c1nc(-c2ccccc2)n(-c2ccccc2)n1`, the cell number change is -10.3%. Moreover, under setting [1], the AC50 was 29.1 µM [rising, single point].

In the case of `COc1ccc(OC)c(NC(=S)N(CCc2c(C)[nH]c3ccc(C)cc23)Cc2cccs2)c1`, the cell number change stood at 11.7%.

Consider `O=C(N=C1SCC(=O)N1c1ccccc1)c1ccco1`, for which the cell number change is 65.3%. The AC50 under setting [2] was 18.4 µM [rising, partial curve].

Consider `O=C(Nc1ccc(C(=O)O)cc1)Nc1cccc2ccccc12`, for which the cell number change is -12.4%. The AC50 under setting [1] was 0.231 µM [rising, full curve, poor fit].

Regarding `Cn1c(=O)oc2cc(S(=O)(=O)NCc3ccc(C(=O)O)cc3)ccc21`, the cell number change is -14.7%. For the same molecule, the AC50 under setting [1] is 3.66 µM [falling, full curve].

For `C(=C\c1ccccn1)/c1ccncc1`, the cell number change turned out to be 15.4%. Also, the AC50 under setting [1] was 0.58 µM [rising, full curve, poor fit].

Turning to `O=C(Nc1cccnc1)/C(N=Nc1c(Cl)cccc1Cl)=C(\O)c1ccccc1`, the cell number change worked out at 30.3%. Moreover, the AC50 under setting [2] was 29.1 µM [rising, single point]. Besides, the AC50 under setting [1] is 0.326 µM [rising, single point].

Take `CC(CC(=O)Nc1ccc2c(c1)OCO2)c1ccccc1` (centres undefined): the cell number change is -9.12%.

On to `O=C1Nc2cc(Cl)c(Cl)cc2N(O)N1c1ccc(Cl)c(Cl)c1`, for which the cell number change was -44.3%. Besides, the AC50 under setting [2] was 29.1 µM [falling, single point]. For the same molecule, the AC50 under setting [1] is 18.4 µM [rising, single point].

Turning to `CCCC(C)C(=O)Nc1ccc(F)c(Cl)c1` (centres undefined), the cell number change is -2.94%. Moreover, the AC50 under setting [2] was 6.51 µM [falling, single point].

Consider `CNc1nc(Oc2ccc(=O)n(C)n2)nc(N2CCOCC2)n1`, for which the cell number change was -37.5%. For the same molecule, under setting [2], the AC50 was 36.6 µM [falling, single point]. In addition, the AC50 under setting [1] is 0.259 µM [falling, full curve, poor fit].

With `COc1cccc(Nc2nc(-c3sc(C)nc3C)cs2)c1`, the cell number change was -61.4%.

In the case of `Cc1cccc(C)c1OCc1cc(C(=O)N2CCN(c3ccccc3)CC2C)no1` (centres undefined), the AC50 under setting [2] is 0.00517 µM [rising, full curve, poor fit].

Take `COc1ccccc1C(=O)Nc1ccnn1C1CCN(C(=O)C2CCOC2)CC1` (centres undefined): the cell number change is -56.1%. Also, under setting [2], the AC50 was 32.6 µM [falling, partial curve, poor fit]. For the same molecule, the AC50 under setting [1] is 2.31 µM [falling, partial curve].

For the molecule `O=C(/C=C/c1ccc(Cl)cc1)Nc1ccccc1N1CCOCC1`, the cell number change is 16.7%. For the same molecule, the AC50 under setting [2] was 5.17 µM [falling, single point].

On to `Cc1cc(C)cc(OCC(=O)OCC(=O)N(C)CC(=O)Nc2ccc(F)cc2)c1`, for which the cell number change was -34.4%. The AC50 under setting [2] was 5.17 µM [falling, full curve, poor fit]. Moreover, the AC50 under setting [1] was 4.61 µM [falling, partial curve].

With `COC(=O)c1ccc(NC(=O)CSCc2ccccc2)cc1`, the cell number change is -47.3%. Further, the concentration at half-maximal activity (AC50) under setting [2] was 29.1 µM [falling, single point].

For the molecule `CCNc1ccc(S(=O)(=O)N(C)C)cc1NCC(=O)Nc1ccccc1Cl`, the cell number change was determined as 11.9%.

Regarding `Cc1cc(OCC(=O)N2CCc3ccccc3C2)c2c(-c3ccccc3)cc(=O)oc2c1`, the AC50 was 6.51 µM [rising, single point] under setting [2] and 6.51 µM [rising, partial curve, poor fit] under setting [1].

With `CCCc1nn(C)c(C(=O)Nc2cccc(CC)c2)c1Cl`, the cell number change was -48.7%. Besides, under setting [2], the AC50 was 18.4 µM [falling, single point]. Moreover, under setting [1], the AC50 was 2.91 µM [falling, partial curve].

The record behind these values is PubChem BioAssay AID2685 (National Center for Advancing Translational Sciences (NCATS), 2010).
